Source: PubChem BioAssay AID720504 (National Center for Advancing Translational Sciences (NCATS), 2013)
In all, about 360,000 compounds went through this assay and about 10,000 (2.8%) were called active. Inconclusive means that the source gave no clear call. Such entries were picked first, then a sample of the others. Calls follow the shape of the dose curve; as a rule, active = well fitted inhibition curve with a large enough effect; inconclusive = small, poorly fitted or top-dose-only effect; inactive = flat fitted curve, though single readings scatter. Where the call is inconclusive, the potency comes from a doubtful curve fit.

Sequences of proteins named here, by UniProt entry; tags and fusion partners are left off.
UniProt P53350, whole entry, looked up: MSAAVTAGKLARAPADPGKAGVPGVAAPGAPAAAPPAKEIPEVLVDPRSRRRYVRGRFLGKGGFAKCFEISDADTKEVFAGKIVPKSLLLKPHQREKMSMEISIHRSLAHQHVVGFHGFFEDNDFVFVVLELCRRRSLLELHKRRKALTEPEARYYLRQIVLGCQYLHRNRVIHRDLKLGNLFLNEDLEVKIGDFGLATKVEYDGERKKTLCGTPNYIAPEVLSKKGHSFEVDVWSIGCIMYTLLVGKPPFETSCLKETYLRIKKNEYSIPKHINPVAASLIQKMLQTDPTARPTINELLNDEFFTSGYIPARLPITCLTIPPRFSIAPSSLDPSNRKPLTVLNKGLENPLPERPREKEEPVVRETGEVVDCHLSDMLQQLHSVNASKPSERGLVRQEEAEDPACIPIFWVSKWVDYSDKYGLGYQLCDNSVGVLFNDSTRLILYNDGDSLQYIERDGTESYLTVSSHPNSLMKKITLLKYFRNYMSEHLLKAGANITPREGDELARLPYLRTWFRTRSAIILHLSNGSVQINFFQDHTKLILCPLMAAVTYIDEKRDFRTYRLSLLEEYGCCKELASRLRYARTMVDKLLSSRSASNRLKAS

Target: Serine/threonine-protein kinase PLK1 (Homo sapiens) (UniProt P53350)
Experiment: qHTS for Inhibitors of PLK1-PDB (polo-like kinase 1 - polo-box domain): Primary Screen; also: nearly all actives have a fitted effect of over 65% in size; as to max response, negative = inhibition: series mostly up to about 57 µM
Conditions: Plk1 PBD binding of FITC phosphopeptide, fluorescence polarization
% is scaled to controls: 0 for no effect and ±100 for the full control effect; potency is read from the fitted curve at half-maximal effect.

Row | SMILES | Potency | max response, negative = inhibition
1 | CCOC(=O)C1=C(CSc2nc(C)cc(C)c2C#N)OC(N)=C(C#N)C1c1cccs1 (stereo not given) | inconclusive: 21.2 µM [inhibitor, single point] | 
2 | COc1ccccc1N1CCN(Cc2cc(Br)c(O)c3ncccc23)CC1 | inconclusive: 33.6 µM [inhibitor, partial curve] | 
3 | Clc1ccc(CSc2nccn2Cc2ccccc2)cc1 |  | inactive: -2.47%
4 | CCNC(=O)CSc1nc(-c2ccc(F)cc2)cs1 | inconclusive: 26.7 µM [inhibitor, single point] | 
5 | CC(C)c1cc(N=NC(N)=O)cc(C(C)C)c1O | inconclusive: 6.7 µM [inhibitor, single point] | 
6 | O=S(=O)(Nc1ccc(N2CCOCC2)cc1)c1c(F)cc(F)cc1Br | inconclusive: 33.6 µM [inhibitor, partial curve, poor fit] | 
7 | O=C(C1CCCN(S(=O)(=O)c2cnc[nH]2)C1)N1CCN(Cc2ccccc2)CC1 (stereo not given) | inconclusive: 29.9 µM [inhibitor, partial curve] | 
8 | COc1ccc(C2=NCCc3cc(OC)c(OC)cc32)cc1 |  | inactive: -2.26%
9 | CCOC(=O)C(=CNc1cccc(C)c1C)C(=O)OCC |  | inactive: -6.91%
10 | CSc1ccc(CNC(=O)c2ccc(NC(=O)C3=CSCCO3)cc2)cc1 | inconclusive: 33.6 µM [inhibitor, partial curve] | 
11 | CSc1nc(=S)n(-c2cc(C)ccc2C)c(C)c1C(C)=O |  | inactive: -14%
12 | Cc1cccc(NC(=O)CN2NS(=O)(=O)c3ccccc3C2=O)c1 |  | inactive: 0.235%
13 | COC(=O)c1c(-c2cccs2)csc1NC(=O)c1cccnc1 |  | inactive: -4.56%
14 | CCOc1ccc2nc(NC(=S)N(C)C)sc2c1 | active: 18.9 µM | 
15 | COc1ccc(NC2=C(Cl)C(=O)N(CCc3ccccc3)C2=O)cc1 | active: 9.47 µM | 
16 | O=C(O)/C=C/c1ccc(-c2cccc(C(F)(F)F)c2)o1 | inconclusive: 29.9 µM [inhibitor, partial curve] | 
17 | O=C(Cc1cccs1)N(c1ccc(Br)cc1)C1C=CS(=O)(=O)C1 (stereo not given) | inconclusive: 37.7 µM [inhibitor, single point] | 
18 | O=C(CCC(=O)OCC(=O)c1ccc([N+](=O)[O-])cc1)NC1CCCCC1 |  | inactive: -6.14%
19 | c1ccc(NC2=NCCN2CCC2CCCCC2)cc1 | inconclusive: 37.7 µM [inhibitor, single point] | 
20 | Cc1ccc(S(=O)(=O)C(C#N)c2nc3ccccc3nc2OCCO)cc1 (stereo not given) |  | inconclusive: -32.1% [inhibitor]
21 | Cc1cc(C#N)c(SCC(N)=O)nc1-c1ccc(F)cc1 | inconclusive: 21.2 µM [inhibitor, partial curve] | 
22 | O=C(Cc1ccc(Cl)cc1)Nc1ccc(C(=O)N2CCCCC2)cc1 |  | inactive: 5.79%
23 | CCOc1cc(/C=C2/C(=N)N3N=C(C)SC3=NC2=O)ccc1OS(=O)(=O)c1ccc(C)cc1 | active: 16.8 µM | 

Row | SMILES | Potency | max response, negative = inhibition
24 | CC1CCCC(C)N1C(=O)c1cccc2c1-c1ccccc1/C2=N/O (stereo not given) | inconclusive: 26.7 µM [inhibitor, single point] | 
25 | O=c1cc(-c2ccccc2)[nH]n2cnnc12 |  | inactive: -10.6%
26 | O=C(CSc1nnc(NC(=O)C2CCC2)s1)Nc1ccc(N2CCOCC2)cc1 |  | inconclusive: -30.8% [inhibitor]
27 | COc1cc(/C=C2\C(=O)ON=C2c2ccccc2)cc(Br)c1O | inconclusive: 2.38 µM [inhibitor, partial curve] | 
28 | O=C(CN(Cc1ccccc1Cl)S(=O)(=O)c1ccc(Cl)cc1)N/N=C/c1ccc(C(=O)O)cc1 |  | inconclusive: -33.3% [inhibitor]
29 | COc1cc(C(=O)Nc2sc(C)c(C)c2C(=O)O)cc(OC)c1OC | inconclusive: 8.44 µM [inhibitor, single point] | 
30 | CCOC(=O)c1c(NC(=O)c2nn(CC)cc2Br)sc(C)c1C | inconclusive: 26.7 µM [inhibitor, partial curve] | 
31 | CCOC(=O)C(Cc1ccccc1)NC(=O)CCc1c(C)nc2nc(C)nn2c1C (stereo not given) | active: 26.7 µM | 
32 | CCOC(=O)c1sc2nccc(N(C)C)c2c1N=CNOC | active: 15 µM | 
33 | COc1ccc(C(=O)CC(Sc2ccccc2N)c2ccc(OC)cc2)cc1 (stereo not given) | inconclusive: 26.7 µM [inhibitor, partial curve] | 
34 | COc1cc2c(cc1NC(=O)c1ccccc1-c1ccccc1C(=O)O)-c1ccccc1C2 | active: 42.3 µM | 
35 | Cc1cc2c3c([nH]c2cc1S(=O)(=O)NCc1ccc(CN2CCCCCC2)o1)CC(C)(C)CC3=O | inconclusive: 23.8 µM [inhibitor, single point] | 
36 | Cc1ccc(N(C)S(=O)(=O)c2cccc(C(=O)Nc3ccc(N4CCOCC4)cc3)c2)cc1 | inconclusive: 67 µM [inhibitor, partial curve] | 
37 | C[C@]12CCC[C@H](O1)c1c(cc3c(c1O)C(=O)c1c(O)cc(O)cc1C3=O)O2 | inconclusive: 37.7 µM [inhibitor, single point] | 
38 | O=C(O)Cc1sc(Nc2ccc(F)cc2)nc1-c1cccs1 | inconclusive: 26.7 µM [inhibitor, single point] | 
39 | CCOc1cc(C(=S)N2CCN(C)CC2)ccc1OCC(=O)N1CCOCC1 | inconclusive: 26.7 µM [inhibitor, single point] | 
40 | O=C(NCc1ccccn1)c1cccc(S(=O)(=O)Nc2ccc(SC(F)F)cc2)c1 | inconclusive: 21.2 µM [inhibitor, partial curve] | 
41 | O=S(=O)(Nc1nc2ccccc2s1)c1cnc(Cl)c(Br)c1 | inconclusive: 37.7 µM [inhibitor, single point] | 
42 | Cc1ccc(C(=O)NC(=S)NNS(=O)(=O)c2ccccc2)cc1 | inconclusive: 18.9 µM [inhibitor, partial curve] | 
43 | Cc1ccc2c(Cl)c(Cc3ccccc3)c(=S)[nH]c2n1 |  | inconclusive: -30.1% [inhibitor]
44 | Cc1cc(F)ccc1S(=O)(=O)Nc1ncnc2sccc12 | active: 21.2 µM | 
45 | CCCCN(C)C(=O)C1CCN(C/C(C)=C/c2ccccc2)CC1 | inconclusive: 21.2 µM [inhibitor, partial curve] | 

As entered above:
`O=S(=O)(Nc1nc2ccccc2s1)c1cnc(Cl)c(Br)c1` – Potency: inconclusive: 37.7 µM [inhibitor, single point]
`O=C(O)/C=C/c1ccc(-c2cccc(C(F)(F)F)c2)o1` – Potency: inconclusive: 29.9 µM [inhibitor, partial curve]
